PMC9288484

Amino acid sequences for entries named in this document (tags omitted). A change or cut given only in a name is not applied to a line headed by its entry.
UniProt Q3UED7: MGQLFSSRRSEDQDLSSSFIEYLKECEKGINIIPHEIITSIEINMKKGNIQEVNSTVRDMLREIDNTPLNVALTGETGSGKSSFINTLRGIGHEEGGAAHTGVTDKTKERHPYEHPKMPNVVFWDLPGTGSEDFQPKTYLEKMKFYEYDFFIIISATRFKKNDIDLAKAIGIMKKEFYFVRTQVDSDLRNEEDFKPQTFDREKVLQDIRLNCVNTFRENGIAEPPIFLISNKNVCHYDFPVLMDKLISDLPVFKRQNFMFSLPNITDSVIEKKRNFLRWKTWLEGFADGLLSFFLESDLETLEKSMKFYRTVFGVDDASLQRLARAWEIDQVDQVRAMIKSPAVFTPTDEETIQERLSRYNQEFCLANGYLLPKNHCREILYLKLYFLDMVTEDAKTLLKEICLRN

Target: 3xFlag-GM4951 (endogenous protein of 3xFlag-Gm4951 knockin mice) (mouse) (UniProt Q3UED7)
Experiment: affinity purification with mass spectrometry; anti-Flag immunoprecipitates from +/+ or Gm4951 3xFlag/3xFlag whole liver lysates (Nonidet P-40 lysis buffer, Flag M2 beads, eluted with 3xFlag peptides), analysed by mass spectrometry

binding: binds
B1: IRGM1, endogenous in mouse liver (protein, UniProt Q60766 1-409)
chain: MKPSHSSCEAAPLLPNMAETHYAPLSSAFPFVTSYQTGSSRLPEVSRSTERALREGKLLELVYGIKETVATLSQIPVSIFVTGDSGNGMSSFINALRVIGHDEDASAPTGVVRTTKTRTEYSSSHFPNVVLWDLPGLGATAQTVEDYVEEMKFSTCDLFIIIASEQFSSNHVKLSKIIQSMGKRFYIVWTKLDRDLSTSVLSEVRLLQNIQENIRENLQKEKVKYPPVFLVSSLDPLLYDFPKLRDTLHKDLSNIRCCEPLKTLYGTYEKIVGDKVAVWKQRIANESLKNSLGVRDDDNMGECLKVYRLIFGVDDESVQQVAQSMGTVVMEYKDNMKSQNFYTLRREDWKLRLMTCAIVNAFFRLLRFLPCVCCCLRRLRHKRMLFLVAQDTKNILEKILRDSIFPPQI

binding: binds
B2: Hydroxysteroid 17β-dehydrogenase 13 (HSD17B13), endogenous in mouse liver (protein, UniProt Q8VCR2 20-304)
chain: ESLVKFFIPRRRKSVTGQTVLITGAGHGIGRLTAYEFAKQKSRLVLWDINKRGVEETADKCRKLGAVVHVFVVDCSNRAEIYNSVDQVKREVGDVEIVVNNAGAIYPADLLSAKDEEITKTFEVNILGHFWIIKALLPSMLRRNSGHIVTVASVCGHGVIPYLIPYCSSKFAAVGFHRALTAELDTLGKTGIQTSCLCPVFVNTGFTKNPSTRLWPVLEPEEVARSLINGILTNKKMIFVPSYINISLILEKGPGFSSKHPHGGSQQPVTPIPGDLTPSSDFLKH

These are yes or no findings as the source states them, for the method shown. In cells and extracts the contact can be indirect. Here binding means that the protein was enriched with, or labelled near, the bait; the list need not be complete. Each block holds one binder with its values, some of them ahead of it.
